Patent US20130196050A1, “SALTY TASTE ENHANCER” (AJINOMOTO CO., INC., priority 2010, published 2013)
At least one structure is not confirmed: it was looked up by name or label, or the drawing left a doubt.

Chains of the proteins cited; added tags and fusions are not shown. Lines headed by an entry give the natural chain unless they say otherwise; changes in a name come on top.
UniProt P51172: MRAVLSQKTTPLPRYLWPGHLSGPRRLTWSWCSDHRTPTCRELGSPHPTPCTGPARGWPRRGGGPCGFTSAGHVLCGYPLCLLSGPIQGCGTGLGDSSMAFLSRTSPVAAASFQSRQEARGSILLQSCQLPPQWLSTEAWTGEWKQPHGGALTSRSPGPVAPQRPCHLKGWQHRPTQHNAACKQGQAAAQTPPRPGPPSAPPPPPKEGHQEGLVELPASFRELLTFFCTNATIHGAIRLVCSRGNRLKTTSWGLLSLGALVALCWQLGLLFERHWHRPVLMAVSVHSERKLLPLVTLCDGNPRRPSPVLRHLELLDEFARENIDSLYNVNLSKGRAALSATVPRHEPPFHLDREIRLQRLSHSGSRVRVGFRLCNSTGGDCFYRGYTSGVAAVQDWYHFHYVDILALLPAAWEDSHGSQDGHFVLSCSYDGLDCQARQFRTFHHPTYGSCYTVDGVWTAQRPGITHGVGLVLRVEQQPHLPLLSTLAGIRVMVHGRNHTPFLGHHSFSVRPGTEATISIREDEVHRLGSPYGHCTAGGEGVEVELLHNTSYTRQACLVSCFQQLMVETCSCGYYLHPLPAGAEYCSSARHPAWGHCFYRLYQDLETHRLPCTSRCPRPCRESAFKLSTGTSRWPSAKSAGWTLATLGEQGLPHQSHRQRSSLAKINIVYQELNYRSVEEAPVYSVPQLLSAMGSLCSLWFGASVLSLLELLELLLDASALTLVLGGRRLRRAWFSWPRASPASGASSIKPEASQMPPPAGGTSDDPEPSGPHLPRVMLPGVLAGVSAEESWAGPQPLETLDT

Molecular target: T1, Human ENaC δ, β and γ subunit (Homo sapiens, UniProt P51168+P51170+P51172)
T1 construct: expressed in transfected cells; host or cells: Xenopus laevis (African clawed frog) oocytes injected with cRNA
T1 sequence (P51172 1-638 isoform P51172-1): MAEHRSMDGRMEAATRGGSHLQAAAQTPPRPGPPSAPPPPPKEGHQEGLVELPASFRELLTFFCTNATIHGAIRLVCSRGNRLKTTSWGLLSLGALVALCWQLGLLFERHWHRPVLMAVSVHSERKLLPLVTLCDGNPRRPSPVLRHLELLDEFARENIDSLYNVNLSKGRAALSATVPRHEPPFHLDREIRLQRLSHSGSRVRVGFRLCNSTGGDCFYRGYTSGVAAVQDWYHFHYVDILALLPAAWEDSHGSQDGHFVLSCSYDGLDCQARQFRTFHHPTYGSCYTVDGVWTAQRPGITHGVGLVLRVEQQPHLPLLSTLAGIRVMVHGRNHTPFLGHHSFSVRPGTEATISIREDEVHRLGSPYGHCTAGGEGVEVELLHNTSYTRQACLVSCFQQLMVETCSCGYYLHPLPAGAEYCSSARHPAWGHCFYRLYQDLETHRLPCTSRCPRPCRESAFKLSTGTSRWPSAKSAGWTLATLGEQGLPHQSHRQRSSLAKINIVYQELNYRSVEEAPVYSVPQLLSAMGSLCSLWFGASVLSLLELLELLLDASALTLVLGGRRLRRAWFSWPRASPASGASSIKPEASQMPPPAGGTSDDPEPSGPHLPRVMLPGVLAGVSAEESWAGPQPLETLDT
T1 sequence (P51168 1-640): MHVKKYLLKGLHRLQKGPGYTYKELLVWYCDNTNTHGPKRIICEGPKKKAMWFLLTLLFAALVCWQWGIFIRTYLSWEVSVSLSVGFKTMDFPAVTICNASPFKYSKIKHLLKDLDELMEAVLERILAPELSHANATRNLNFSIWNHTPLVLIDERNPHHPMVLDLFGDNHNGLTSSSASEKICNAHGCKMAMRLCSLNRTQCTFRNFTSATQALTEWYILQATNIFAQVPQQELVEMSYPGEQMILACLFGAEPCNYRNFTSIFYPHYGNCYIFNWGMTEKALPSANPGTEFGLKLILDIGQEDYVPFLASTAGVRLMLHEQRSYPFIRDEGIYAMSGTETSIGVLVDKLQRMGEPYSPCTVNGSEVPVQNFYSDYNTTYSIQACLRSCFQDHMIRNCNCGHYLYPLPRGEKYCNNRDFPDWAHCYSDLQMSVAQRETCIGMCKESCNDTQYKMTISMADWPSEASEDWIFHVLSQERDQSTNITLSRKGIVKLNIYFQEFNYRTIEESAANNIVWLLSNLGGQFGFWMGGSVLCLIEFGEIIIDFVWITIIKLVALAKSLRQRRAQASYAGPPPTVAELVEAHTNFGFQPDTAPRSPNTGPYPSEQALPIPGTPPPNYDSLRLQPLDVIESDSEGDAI
T1 sequence (P51170 1-649): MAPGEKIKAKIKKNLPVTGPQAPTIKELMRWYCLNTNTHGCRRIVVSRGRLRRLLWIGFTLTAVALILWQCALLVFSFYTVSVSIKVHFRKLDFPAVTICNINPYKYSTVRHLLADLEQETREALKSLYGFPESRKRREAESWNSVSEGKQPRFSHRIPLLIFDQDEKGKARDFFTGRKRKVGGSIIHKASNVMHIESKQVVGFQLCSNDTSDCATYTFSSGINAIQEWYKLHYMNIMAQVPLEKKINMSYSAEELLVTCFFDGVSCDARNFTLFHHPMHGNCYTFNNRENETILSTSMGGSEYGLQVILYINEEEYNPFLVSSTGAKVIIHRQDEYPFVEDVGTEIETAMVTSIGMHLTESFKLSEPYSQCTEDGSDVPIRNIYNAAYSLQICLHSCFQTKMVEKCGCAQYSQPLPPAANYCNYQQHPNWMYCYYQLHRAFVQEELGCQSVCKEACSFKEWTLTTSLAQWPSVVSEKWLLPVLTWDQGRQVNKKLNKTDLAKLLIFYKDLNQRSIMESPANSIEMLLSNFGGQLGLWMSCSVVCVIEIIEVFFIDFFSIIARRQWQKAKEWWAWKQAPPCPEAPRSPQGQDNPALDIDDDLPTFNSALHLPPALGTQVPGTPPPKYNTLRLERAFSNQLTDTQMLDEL
Test: Measurement of ENaC activation potency (two electrode voltage clamp current in ENaC-expressing oocyte)
Format: cell-based
Conditions: lowest concentration increasing the current value by not less than 10% vs before addition
Procedure: ENaC activation current value, namely, the inward current in ENaC-expressing oocyte was measured as follows.
According to the method described in Motonao Nakamura, Takao Shimizu: Experiment of African clawed frog oocyte, Experimental Medicine Vol. 11, No. 3, 224-232 (1993), oocyte was collected from African clawed frog, […], and the current value was measured by a Two Electrode Voltage Clamp technique. In the present invention, ND96 (96 mM NaCl, 2 mM KCl, 1 mM MgCl2, 5 mM Hepes, 1.8 mM CaCl2, pH 7.6) was used instead of MBS buffer in the above-mentioned document. […]
A mixture of the same amount of ENaC δ subunit cRNA (0.4 to 0.8 μg/μL), and β and γ subunits cRNA (0.4 μg/μL) was injected into the oocyte of African clawed frog at 27.6 nL per oocyte, and the oocyte was cultured for 16 hours to 72 hours. Thereafter, the oocyte was set on a measuring apparatus OpusXpress 6000A, the electrodes were inserted into the oocyte, the voltage was clamped at a level lower by −30 mV than the resting membrane potential by a Two Electrode Voltage Clamp technique, and the current value was measured.
To measure the ENaC activation potency, oocyte was stimulated with each test compound, and the minimum effective dose (hereinafter to be abbreviated as MED) of the compound at the time point when the electric current started to increase was measured. […]

Cn1cc(C[C@H](NC(=O)c2c(O)cccc2O)C(=O)O)c2ccccc21 [Example 13]
MED value (minimum effective dose): 1 µM

CC(C)[C@@H]1CC[C@@H](C)C[C@H]1C(=O)N[C@@H](Cc1c[nH]c2ccccc12)C(=O)O [Example 53]
MED value (minimum effective dose): 10 µM
